Measured values taken from patent US20240321457A1, “SYSTEMS FOR AND METHODS OF TREATMENT SELECTION” (THE REGENTS OF THE UNIVERSITY OF CALIFORNIA, priority 2020, published 2024).
No constants are given. Whether binding was seen depends on the method and setting. Binding seen in cells or lysates may run through a third protein. Some results given as binding are weak or reduced against the parent protein; the word gives no strength.

Protein sequences, listed by entry. Tags and fused reporters are not part of them. Residues count along the entry.
UniProt P11387, residues 2-765: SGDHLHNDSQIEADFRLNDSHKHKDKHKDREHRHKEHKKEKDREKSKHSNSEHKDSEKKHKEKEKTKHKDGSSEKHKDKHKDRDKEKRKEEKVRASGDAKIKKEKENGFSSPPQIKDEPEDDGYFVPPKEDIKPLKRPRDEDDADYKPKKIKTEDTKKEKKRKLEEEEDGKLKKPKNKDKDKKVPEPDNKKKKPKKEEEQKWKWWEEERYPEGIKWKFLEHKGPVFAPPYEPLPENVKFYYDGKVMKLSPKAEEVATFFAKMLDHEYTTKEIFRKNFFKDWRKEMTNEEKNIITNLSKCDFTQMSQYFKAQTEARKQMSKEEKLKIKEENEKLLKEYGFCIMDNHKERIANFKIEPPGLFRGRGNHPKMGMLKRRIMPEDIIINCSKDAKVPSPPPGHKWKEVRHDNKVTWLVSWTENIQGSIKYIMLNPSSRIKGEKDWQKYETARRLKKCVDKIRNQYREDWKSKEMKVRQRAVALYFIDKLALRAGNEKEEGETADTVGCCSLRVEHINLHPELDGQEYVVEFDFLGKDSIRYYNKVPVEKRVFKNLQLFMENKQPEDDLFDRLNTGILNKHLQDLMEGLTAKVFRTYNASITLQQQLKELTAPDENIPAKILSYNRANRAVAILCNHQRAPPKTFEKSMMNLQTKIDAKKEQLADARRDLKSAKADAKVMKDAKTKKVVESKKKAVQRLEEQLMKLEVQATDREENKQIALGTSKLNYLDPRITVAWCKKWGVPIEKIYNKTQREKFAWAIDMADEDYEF
UniProt Q14532: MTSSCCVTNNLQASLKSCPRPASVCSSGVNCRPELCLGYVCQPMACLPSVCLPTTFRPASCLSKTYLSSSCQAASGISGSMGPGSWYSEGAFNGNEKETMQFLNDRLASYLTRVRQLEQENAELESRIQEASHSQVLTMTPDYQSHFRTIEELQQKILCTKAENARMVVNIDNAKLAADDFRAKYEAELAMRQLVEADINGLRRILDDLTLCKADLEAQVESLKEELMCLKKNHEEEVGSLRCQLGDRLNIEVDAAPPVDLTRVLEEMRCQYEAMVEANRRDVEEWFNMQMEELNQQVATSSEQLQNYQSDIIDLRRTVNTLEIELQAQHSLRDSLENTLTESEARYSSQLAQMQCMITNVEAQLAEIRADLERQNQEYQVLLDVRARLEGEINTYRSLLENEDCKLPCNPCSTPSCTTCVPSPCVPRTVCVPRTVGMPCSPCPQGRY
UniProt Q9ULV0: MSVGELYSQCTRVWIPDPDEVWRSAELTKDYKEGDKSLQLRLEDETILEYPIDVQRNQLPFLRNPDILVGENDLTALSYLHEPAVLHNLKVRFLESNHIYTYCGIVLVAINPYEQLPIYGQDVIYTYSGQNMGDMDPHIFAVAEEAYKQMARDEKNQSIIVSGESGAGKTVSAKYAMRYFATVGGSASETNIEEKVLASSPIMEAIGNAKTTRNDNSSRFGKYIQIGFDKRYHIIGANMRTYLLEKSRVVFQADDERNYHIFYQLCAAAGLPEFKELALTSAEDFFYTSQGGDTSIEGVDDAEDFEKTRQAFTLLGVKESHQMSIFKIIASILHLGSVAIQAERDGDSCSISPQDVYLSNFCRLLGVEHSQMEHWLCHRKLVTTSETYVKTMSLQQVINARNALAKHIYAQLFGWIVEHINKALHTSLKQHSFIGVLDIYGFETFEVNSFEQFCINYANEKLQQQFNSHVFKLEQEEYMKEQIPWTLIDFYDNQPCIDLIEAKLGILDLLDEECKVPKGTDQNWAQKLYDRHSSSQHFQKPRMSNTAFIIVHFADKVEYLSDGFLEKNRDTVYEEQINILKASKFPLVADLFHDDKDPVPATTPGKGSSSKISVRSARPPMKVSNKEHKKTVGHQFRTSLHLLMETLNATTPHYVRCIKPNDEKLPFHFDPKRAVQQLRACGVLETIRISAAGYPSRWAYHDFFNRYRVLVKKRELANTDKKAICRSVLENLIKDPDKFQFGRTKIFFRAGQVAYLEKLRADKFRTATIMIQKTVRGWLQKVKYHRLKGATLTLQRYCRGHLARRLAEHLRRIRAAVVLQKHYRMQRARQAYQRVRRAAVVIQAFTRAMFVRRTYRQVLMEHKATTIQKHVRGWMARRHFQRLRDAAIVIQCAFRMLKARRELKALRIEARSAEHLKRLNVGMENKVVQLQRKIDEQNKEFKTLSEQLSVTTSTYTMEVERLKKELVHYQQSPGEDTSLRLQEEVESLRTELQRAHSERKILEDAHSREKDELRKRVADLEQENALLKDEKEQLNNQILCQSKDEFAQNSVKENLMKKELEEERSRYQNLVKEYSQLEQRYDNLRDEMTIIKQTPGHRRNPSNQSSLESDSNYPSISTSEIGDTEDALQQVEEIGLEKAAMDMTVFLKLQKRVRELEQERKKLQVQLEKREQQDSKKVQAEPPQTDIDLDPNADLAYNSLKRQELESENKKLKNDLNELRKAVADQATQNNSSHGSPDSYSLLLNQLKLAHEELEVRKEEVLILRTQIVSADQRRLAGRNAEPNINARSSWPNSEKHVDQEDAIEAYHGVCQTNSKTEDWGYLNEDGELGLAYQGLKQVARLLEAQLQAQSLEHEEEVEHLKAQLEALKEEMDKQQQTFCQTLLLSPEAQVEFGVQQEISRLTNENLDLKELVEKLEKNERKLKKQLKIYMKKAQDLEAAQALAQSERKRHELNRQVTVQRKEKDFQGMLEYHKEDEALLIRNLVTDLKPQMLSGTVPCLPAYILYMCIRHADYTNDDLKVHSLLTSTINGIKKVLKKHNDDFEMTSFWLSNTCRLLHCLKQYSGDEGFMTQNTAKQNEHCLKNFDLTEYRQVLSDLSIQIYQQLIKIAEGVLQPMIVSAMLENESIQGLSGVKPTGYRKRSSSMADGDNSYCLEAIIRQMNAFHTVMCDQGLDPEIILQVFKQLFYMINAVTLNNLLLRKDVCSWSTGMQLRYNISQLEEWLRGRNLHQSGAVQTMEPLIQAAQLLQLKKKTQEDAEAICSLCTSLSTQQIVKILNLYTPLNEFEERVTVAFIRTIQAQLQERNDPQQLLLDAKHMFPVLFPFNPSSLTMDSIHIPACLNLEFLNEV
UniProt Q9UBG3: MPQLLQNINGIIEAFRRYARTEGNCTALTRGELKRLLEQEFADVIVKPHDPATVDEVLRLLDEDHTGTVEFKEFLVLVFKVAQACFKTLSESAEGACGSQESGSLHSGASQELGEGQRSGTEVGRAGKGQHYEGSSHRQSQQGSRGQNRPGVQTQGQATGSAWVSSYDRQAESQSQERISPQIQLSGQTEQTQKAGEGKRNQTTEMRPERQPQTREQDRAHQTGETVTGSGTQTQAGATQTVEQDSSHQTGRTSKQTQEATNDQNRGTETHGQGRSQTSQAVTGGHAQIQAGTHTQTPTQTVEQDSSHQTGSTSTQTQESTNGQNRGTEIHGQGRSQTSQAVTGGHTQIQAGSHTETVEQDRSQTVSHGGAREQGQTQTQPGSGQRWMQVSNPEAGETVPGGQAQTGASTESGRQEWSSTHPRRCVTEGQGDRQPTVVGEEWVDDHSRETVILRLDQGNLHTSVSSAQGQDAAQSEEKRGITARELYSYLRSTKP
UniProt P01106, residues 16-454: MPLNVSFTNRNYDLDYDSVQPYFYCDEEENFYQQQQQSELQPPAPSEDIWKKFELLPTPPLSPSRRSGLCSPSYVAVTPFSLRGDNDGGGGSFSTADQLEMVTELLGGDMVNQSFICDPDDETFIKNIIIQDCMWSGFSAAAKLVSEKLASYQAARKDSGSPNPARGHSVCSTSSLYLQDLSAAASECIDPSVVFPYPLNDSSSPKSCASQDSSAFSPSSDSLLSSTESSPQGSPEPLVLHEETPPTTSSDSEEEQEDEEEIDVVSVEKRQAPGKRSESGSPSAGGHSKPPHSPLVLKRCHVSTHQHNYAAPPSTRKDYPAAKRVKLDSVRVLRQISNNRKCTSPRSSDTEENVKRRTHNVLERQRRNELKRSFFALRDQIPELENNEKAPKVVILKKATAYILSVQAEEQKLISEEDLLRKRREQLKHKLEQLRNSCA
UniProt Q9Y243: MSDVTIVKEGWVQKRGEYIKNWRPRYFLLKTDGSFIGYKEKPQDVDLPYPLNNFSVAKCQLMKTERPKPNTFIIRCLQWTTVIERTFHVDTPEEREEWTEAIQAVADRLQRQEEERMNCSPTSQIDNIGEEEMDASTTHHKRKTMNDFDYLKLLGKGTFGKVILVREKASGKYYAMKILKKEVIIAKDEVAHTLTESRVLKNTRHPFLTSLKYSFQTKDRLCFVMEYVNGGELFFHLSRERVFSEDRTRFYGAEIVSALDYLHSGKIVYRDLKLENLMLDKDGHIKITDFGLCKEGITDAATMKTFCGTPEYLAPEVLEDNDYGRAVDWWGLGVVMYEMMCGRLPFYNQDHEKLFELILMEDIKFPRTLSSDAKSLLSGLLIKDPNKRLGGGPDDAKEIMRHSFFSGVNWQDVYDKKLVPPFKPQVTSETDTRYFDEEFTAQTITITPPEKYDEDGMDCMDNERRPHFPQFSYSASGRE
UniProt P12830, residues 155-882: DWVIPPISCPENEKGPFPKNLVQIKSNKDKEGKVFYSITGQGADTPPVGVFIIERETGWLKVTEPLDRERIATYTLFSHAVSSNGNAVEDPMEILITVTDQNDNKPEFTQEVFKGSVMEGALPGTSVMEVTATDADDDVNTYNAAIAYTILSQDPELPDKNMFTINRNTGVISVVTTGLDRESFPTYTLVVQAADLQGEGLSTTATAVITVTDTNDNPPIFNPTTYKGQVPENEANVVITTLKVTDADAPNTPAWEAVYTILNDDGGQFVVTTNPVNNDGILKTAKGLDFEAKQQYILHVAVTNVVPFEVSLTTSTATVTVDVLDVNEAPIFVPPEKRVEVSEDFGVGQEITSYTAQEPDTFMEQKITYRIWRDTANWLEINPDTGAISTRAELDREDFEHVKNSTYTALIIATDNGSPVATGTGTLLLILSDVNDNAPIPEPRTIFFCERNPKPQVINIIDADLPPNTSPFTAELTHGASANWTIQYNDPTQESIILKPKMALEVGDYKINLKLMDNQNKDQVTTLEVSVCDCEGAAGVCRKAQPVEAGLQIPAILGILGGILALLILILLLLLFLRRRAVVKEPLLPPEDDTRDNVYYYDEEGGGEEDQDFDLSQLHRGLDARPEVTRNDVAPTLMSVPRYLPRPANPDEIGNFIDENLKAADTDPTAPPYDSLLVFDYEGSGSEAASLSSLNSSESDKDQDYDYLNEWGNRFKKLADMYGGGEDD
UniProt P30281: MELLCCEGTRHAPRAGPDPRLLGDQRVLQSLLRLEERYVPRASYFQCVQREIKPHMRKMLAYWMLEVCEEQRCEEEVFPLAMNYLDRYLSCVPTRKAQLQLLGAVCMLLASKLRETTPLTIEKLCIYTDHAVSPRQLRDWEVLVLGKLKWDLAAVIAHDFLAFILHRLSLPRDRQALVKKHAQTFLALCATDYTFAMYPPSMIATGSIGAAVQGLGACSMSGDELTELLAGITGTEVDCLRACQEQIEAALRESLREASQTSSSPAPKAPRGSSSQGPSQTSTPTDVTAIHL
UniProt P31749: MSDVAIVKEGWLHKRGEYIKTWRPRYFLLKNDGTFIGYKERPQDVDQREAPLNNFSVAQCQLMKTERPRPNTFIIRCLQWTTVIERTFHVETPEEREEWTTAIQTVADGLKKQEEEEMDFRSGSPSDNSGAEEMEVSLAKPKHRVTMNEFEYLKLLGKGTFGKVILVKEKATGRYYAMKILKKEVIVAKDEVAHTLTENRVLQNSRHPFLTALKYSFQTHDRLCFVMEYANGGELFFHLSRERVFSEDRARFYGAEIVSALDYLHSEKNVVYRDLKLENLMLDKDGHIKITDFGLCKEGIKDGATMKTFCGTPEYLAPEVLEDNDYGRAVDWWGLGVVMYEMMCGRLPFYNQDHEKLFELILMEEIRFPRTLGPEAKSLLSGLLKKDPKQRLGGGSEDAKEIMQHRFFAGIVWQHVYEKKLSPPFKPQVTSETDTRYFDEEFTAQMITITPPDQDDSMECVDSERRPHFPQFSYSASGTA

Columns and labels:
TOP1 (human) = TOP1 (human) (UniProt P11387); test: AP-MS, 3xFLAG bait, HNSCC/HET-1A cell lines
PARP1 (human) = PARP1 (human) (UniProt P09874); test: AP-MS, 3xFLAG bait, HNSCC/HET-1A cell lines
keratin KRT32 (human) [1] = molecular target: keratin KRT32 (human) (UniProt Q14532); test: AP-MS, 3xFLAG bait, breast cell lines
[2] = molecular target: T1, S100 Calcium Binding Protein A3 (human) (UniProt P33764); test: AP-MS, 3xFLAG bait, breast cell lines
T1 sequence (looked up): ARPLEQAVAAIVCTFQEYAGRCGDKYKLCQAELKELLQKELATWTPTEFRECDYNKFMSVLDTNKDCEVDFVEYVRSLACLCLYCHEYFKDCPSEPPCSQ

keratin KRT32 (human) [3] = molecular target: keratin KRT32 (human) (UniProt Q14532); test: AP-MS, 3xFLAG bait, MDA-MB-231 cells
[4] = molecular target: T1, S100 Calcium Binding Protein A3 (human); test: AP-MS, 3xFLAG bait, MDA-MB-231 cells
PLEKHA7 (human) [5] = molecular target: T2, PLEKHA7 (human) (UniProt Q6IQ23); test: AP-MS, 3xFLAG bait, breast cell lines
T2 sequence (looked up): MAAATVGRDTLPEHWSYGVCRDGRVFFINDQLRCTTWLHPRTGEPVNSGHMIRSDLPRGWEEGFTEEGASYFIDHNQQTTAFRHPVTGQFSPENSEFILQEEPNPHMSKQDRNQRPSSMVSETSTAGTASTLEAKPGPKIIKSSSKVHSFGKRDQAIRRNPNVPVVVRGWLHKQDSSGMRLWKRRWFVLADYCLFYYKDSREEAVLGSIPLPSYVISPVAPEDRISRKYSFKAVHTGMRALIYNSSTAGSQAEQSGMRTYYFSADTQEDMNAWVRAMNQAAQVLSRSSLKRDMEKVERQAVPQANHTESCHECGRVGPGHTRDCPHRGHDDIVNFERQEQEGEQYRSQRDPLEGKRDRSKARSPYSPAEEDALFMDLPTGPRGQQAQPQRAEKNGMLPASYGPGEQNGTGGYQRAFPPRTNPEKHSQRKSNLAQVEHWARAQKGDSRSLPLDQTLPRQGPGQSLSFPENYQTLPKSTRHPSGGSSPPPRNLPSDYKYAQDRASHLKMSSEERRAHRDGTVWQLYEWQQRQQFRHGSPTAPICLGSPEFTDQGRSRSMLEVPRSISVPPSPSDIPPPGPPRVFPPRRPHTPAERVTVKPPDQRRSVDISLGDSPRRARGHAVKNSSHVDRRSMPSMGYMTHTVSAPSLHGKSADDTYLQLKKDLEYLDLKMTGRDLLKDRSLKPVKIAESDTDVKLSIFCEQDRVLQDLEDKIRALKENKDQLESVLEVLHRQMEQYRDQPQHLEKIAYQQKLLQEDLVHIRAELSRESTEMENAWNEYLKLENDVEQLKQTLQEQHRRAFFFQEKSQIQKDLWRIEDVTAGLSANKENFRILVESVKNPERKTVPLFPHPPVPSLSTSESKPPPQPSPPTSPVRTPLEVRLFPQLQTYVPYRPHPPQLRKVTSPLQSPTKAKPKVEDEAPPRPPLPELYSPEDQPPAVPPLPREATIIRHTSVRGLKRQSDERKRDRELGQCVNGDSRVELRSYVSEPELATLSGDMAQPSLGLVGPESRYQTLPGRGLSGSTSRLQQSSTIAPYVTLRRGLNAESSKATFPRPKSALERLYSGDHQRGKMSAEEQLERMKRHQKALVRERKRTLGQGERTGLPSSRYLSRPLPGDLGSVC

PKP4 (human) [6] = molecular target: T3, PKP4 (human) (UniProt Q99569); test: AP-MS, 3xFLAG bait, breast cell lines
T3 sequence (looked up): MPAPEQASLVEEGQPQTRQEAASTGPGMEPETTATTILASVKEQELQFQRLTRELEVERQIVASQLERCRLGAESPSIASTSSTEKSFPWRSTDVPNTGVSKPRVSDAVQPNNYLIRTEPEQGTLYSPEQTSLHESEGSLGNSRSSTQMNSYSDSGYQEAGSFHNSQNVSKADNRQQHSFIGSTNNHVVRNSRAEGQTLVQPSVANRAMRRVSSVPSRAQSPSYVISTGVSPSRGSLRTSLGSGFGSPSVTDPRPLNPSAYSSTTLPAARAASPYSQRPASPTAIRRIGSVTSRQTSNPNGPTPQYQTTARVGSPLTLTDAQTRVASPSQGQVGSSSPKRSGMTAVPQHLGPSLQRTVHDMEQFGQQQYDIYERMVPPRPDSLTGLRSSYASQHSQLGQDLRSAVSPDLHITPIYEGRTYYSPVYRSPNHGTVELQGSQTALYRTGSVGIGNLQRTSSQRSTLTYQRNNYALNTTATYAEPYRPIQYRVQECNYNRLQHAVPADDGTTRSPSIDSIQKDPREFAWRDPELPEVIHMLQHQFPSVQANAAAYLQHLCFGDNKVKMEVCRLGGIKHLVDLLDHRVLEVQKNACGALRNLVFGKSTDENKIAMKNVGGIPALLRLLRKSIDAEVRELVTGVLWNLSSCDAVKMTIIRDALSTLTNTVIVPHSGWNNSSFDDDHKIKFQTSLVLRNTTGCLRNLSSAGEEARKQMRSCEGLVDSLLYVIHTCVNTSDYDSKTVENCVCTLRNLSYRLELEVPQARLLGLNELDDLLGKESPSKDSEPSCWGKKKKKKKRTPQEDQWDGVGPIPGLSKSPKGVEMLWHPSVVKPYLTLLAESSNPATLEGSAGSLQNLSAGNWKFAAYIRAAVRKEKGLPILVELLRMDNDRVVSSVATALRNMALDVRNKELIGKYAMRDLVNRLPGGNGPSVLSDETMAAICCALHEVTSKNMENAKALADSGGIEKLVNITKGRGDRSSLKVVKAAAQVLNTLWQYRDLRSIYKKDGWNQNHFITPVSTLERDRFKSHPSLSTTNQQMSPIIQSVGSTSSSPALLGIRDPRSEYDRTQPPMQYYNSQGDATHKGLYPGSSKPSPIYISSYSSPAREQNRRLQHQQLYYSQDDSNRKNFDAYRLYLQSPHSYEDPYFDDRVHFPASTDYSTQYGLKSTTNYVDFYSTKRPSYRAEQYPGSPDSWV

PLEKHA7 (human) [7] = molecular target: T2, PLEKHA7 (human); test: AP-MS, 3xFLAG bait, MDA-MB-231 cells
PKP4 (human) [8] = molecular target: T3, PKP4 (human); test: AP-MS, 3xFLAG bait, MDA-MB-231 cells
CDKN1A (human) = CDKN1A (human) (UniProt P38936); test: AP-MS, 3xFLAG bait, CAL-33, SCC-25 and HET-1A cells
CDKN1B (human) [9] = molecular target: CDKN1B (human) (UniProt P46527); test: as above
MYO5B (human) = MYO5B (human) (UniProt Q9ULV0); test: AP-MS, WT vs mutant 3xFLAG bait
MYH10 (human) = MYH10 (human) (UniProt P35580); test: AP-MS, WT vs mutant 3xFLAG bait
SPECCI (human) = molecular target: T4, SPECCI (human) (UniProt Q5M775); test: AP-MS, WT vs mutant 3xFLAG bait
T4 sequence (looked up): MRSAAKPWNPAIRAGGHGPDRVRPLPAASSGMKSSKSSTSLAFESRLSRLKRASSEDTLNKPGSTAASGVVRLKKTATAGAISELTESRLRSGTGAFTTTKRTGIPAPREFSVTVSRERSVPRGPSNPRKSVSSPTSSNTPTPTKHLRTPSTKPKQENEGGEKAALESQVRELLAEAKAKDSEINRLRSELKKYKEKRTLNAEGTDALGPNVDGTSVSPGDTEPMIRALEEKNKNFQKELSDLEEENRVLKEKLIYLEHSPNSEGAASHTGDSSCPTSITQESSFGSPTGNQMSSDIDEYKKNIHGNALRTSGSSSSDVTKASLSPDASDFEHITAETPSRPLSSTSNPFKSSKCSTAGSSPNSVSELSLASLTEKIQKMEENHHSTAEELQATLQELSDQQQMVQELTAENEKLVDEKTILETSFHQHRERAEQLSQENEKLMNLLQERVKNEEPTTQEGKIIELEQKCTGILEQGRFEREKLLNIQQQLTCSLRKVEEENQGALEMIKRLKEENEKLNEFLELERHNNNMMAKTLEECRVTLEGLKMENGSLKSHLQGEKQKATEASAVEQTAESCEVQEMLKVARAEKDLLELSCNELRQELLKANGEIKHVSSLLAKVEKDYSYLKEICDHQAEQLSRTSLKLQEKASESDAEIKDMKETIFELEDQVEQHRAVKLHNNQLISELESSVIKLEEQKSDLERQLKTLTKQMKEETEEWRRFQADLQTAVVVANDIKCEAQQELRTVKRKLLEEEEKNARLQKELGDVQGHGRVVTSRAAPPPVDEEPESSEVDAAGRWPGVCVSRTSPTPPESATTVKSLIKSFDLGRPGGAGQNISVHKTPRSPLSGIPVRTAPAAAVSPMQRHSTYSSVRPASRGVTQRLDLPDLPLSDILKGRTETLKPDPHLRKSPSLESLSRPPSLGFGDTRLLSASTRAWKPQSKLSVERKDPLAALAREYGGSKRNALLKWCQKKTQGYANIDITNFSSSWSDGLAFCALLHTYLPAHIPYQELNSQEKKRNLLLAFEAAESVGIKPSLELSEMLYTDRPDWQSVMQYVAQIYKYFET

MYO6 (human) = MYO6 (human) (UniProt Q9UM54); test: AP-MS, WT vs mutant 3xFLAG bait
SIPA1L3 (human) = SIPA1L3 (human) (UniProt O60292); test: AP-MS, WT vs mutant 3xFLAG bait
CDKN1B (human) [10] = molecular target: CDKN1B (human) (UniProt P46527); test: AP-MS, 3xFLAG bait, MCF7 and MDA-MB-231 cells
SPRR3 (human) = molecular target: T5, SPRR3 (human) (UniProt Q9UBC9); test: AP-MS, 3xFLAG bait, breast cell lines
T5 sequence (looked up): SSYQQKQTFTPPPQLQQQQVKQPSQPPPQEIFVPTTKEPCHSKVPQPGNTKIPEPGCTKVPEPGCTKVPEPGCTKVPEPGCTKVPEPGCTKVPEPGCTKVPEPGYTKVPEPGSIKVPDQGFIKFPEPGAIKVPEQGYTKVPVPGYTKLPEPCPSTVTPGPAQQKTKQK

CRNN (human) = CRNN (human) (UniProt Q9UBG3); test: AP-MS, 3xFLAG bait, breast cell lines
CSTB (human) = molecular target: T6, CSTB (human) (UniProt P04080); test: AP-MS, 3xFLAG bait, breast cell lines
T6 sequence (looked up): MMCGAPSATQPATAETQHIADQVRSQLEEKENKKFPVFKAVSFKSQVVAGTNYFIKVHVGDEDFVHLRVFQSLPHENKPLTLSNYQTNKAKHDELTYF

CCDC88C (human) [11] = molecular target: CCDC88C (human) (UniProt Q9P219); test: AP-MS, differential interaction scoring
CCDC88C (human) [12] = molecular target: CCDC88C (human) (UniProt Q9P219); test: AP-MS, 3xFLAG bait, CAL-33 cells
RRAD (human) = molecular target: T7, RRAD (human) (UniProt P55042); test: quantitative AP-MS, MDA-MB-231 cells
T7 sequence (looked up): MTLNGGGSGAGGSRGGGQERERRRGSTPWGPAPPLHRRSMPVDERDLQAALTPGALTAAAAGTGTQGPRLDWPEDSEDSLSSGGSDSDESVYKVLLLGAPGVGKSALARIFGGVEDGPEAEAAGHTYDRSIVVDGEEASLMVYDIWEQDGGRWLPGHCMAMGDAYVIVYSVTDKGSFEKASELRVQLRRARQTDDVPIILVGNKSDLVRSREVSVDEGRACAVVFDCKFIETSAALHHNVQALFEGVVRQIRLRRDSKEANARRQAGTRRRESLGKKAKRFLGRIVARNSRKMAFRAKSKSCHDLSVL

Measured: binding

MYC (from UniProt P01106 16-454)
binds: TOP1 (human) | PARP1 (human)

AKT3 (from UniProt Q9Y243 1-479) (enzyme)
binds: keratin KRT32 (human) [1] | [2] | keratin KRT32 (human) [3] | [4]

CDH1 (from UniProt P12830 155-882)
binds: PLEKHA7 (human) [5] | PKP4 (human) [6] | PLEKHA7 (human) [7] | PKP4 (human) [8]

Cyclin D1 (from UniProt P24385 1-295)
binds: CDKN1A (human) | CDKN1B (human) [9]

CHEK2 1100delC (from UniProt O96017 1-366) (enzyme)
binds: MYO5B (human) | MYH10 (human) | SPECCI (human) | MYO6 (human) | SIPA1L3 (human)

CCND3 (from UniProt P30281 1-292)
binds: CDKN1B (human) [10]

AKT1 (from UniProt P31749 1-480) (enzyme)
binds: SPRR3 (human) | CRNN (human) | CSTB (human) | keratin KRT32 (human) [3] | [4]

CHEK2 K373E (from UniProt O96017 1-543) (enzyme)
binds: MYO5B (human) | MYH10 (human) | SPECCI (human) | MYO6 (human) | SIPA1L3 (human)

ERBB2 (from UniProt P04626 23-1255) (receptor)
binds: CCDC88C (human) [11] | CCDC88C (human) [12]

TP53 (from UniProt P04637 1-393)
binds: RRAD (human)
